{"source": "patent US6492562B1", "about": "“Racemic thioesters for production of polyketides” (Kosan Biosciences, Inc., priority 1999, dated 2002)", "test_system": "Streptomyces coelicolor CH999/pJRJ2", "experiment": "Comparative feeding of diketide N-acylcysteamine thioesters; production of 15-methyl-6-dEB monitored by HPLC", "format": "cell-based", "conditions": "cultures fed 0.5 mM diketide thioester 2 days post-inoculation; production 6 days after feeding; HPLC with evaporative light scattering; preliminary results", "data": [{"smiles": "CCCC(=O)NCCSC(=O)[C@@H](C)[C@H](O)CCC", "note": "(relative stereo) [Butyryl, (±)-(2R*,3S*)-2-Methyl-3-hydroxyhexanoate N-Butyrylcysteamine Thioester]", "values": [{"measurement": "Yield of 15-methyl-6-dEB", "value": 30, "unit": "mg/L"}]}, {"smiles": "CCCCCCC(=O)NCCSC(=O)[C@@H](C)[C@H](O)CCC", "note": "(relative stereo) [Heptanoyl, (±)-(2R*,3S*)-2-Methyl-3-hydroxyhexanoate N-Heptanoylcysteamine Thioester]", "values": [{"measurement": "Yield of 15-methyl-6-dEB", "value": 27, "unit": "mg/L"}]}, {"smiles": "CCCCCC(=O)NCCSC(=O)[C@@H](C)[C@H](O)CCC", "note": "(relative stereo) [Hexanoyl, (±)-(2R*,3S*)-2-Methyl-3-hydroxyhexanoate N-Hexanoylcysteamine Thioester]", "values": [{"measurement": "Yield of 15-methyl-6-dEB", "value": 33, "unit": "mg/L"}]}, {"smiles": "CCC[C@@H](O)[C@H](C)C(=O)SCCNC(C)=O", "note": "(relative stereo) [Acetyl, (±)-(2R*,3S*)-2-Methyl-3-hydroxyhexanoate N-Acetylcysteamine Thioester]", "values": [{"measurement": "Yield of 15-methyl-6-dEB", "value": 26, "unit": "mg/L"}]}, {"smiles": "CCC[C@@H](O)[C@H](C)C(=O)SCCNC(=O)CC", "note": "(relative stereo) [Propionyl, (±)-(2R*,3S*)-2-Methyl-3-hydroxyhexanoate N-Propionylcysteamine Thioester]", "values": [{"measurement": "Yield of 15-methyl-6-dEB", "value": 35, "unit": "mg/L"}]}, {"smiles": "CCCCCCCC(=O)NCCSC(=O)[C@@H](C)[C@H](O)CCC", "note": "(relative stereo) [Octanoyl, (±)-(2R*,3S*)-2-Methyl-3-hydroxyhexanoate N-Octanoylcysteamine Thioester]", "values": [{"measurement": "Yield of 15-methyl-6-dEB", "value": 23, "unit": "mg/L"}]}, {"smiles": "CCCCC(=O)NCCSC(=O)[C@@H](C)[C@H](O)CCC", "note": "(relative stereo) [Pentanoyl, (±)-(2R*,3S*)-2-Methyl-3-hydroxyhexanoate N-Pentanoylcysteamine Thioester]", "values": [{"measurement": "Yield of 15-methyl-6-dEB", "value": 35, "unit": "mg/L"}]}]}
